# Laboratory results from PMC12592420, “A mismatch in enzyme-redox partnerships underlies divergent cytochrome P450 activities between human hepatocytes and microsomes” (Communications Biology, 2025).
# Key:
# [1] = in vitro; details: human, Caco-2
# [2] = physchem; details: pH 7.4
compound,measurement,setting,value
COC(=O)C1=C(C)NC(C)=C(C(=O)OC)C1c1ccccc1[N+](=O)[O-] [Nifedipine],Papp,[1],78.3 ×10⁻⁶ cm/s
same,logD,[2],3.15
